Protein sequences, listed by entry. Tags and fused reporters are not part of them.
UniProt Q92918, whole entry: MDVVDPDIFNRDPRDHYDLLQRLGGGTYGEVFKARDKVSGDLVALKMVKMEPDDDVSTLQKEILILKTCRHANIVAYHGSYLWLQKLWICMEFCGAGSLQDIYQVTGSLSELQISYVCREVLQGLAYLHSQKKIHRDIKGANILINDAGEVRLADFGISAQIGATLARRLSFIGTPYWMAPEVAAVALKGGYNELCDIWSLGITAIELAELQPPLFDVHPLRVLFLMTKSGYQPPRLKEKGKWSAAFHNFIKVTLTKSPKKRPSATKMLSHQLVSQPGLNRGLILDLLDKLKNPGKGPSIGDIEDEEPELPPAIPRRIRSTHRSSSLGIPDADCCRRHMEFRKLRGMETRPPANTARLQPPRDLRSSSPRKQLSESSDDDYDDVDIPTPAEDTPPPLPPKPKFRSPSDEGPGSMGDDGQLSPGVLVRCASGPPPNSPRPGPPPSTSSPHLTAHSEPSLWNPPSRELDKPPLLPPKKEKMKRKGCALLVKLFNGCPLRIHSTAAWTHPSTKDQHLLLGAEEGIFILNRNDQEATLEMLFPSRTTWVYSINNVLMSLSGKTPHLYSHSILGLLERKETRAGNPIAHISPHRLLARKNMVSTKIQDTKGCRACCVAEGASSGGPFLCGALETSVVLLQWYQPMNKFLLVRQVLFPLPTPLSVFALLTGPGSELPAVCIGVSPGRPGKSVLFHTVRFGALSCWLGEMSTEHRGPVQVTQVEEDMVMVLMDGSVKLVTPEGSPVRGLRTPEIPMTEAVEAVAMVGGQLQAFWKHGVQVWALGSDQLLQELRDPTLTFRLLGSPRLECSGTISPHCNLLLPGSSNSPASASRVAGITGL

In patent publication US20250011331A1 (Nimbus Saturn, Inc., priority 2021, published 2025):

Target: HPK1 (Homo sapiens, UniProt Q92918)
Experiment: HPK1 biochemical enzyme assay (microfluidic mobility shift)
Conditions: read-out: HPK1 1 mM ATP Caliper IC50, 1.5 nM HPK1 (Invitrogen), 30 min preincubation, 60 min at RT, Caliper EZ Reader
Experimental: HPK1 biochemical enzyme assay: HPK1 enzyme inhibition was measured using a microfluidic mobility shift assay. Reactions were performed in a 384-well plate, containing 1.5 nM HPK1 (Invitrogen), in assay buffer (Cama Biosciences; pH 7.4). Test compounds were titrated in ten point curves (top final assay concentration 3 μM), and preincubated with enzyme/substrate mix for 30 min prior to initiation of the reaction by addition of ATP (1 mM final concentration) and substrate (1 μM final concentration; Carna Biosciences) diluted in assay buffer supplemented by MgCl2 (final assay concentration of 5 mM). Following 60 min incubation at RT, the reaction was terminated by addition of 60 μl/well termination buffer (Carna Biosciences) and signal determination using a Caliper EZ Reader (Perkin Elmer, UK).

CN(C)Cc1nc(Nc2ccc(-c3cnc4cc(C#N)ccn34)c3c2C(=O)NC3)ccc1C1CCOCC1
IC50: < 100 nM

The match of structure and compound is tentative.
